Experimental data from PMC7955810.
No constants are given. Whether binding was seen depends on the method and setting. Some results given as binding are weak or reduced against the parent protein; the word gives no strength.

The chains behind the UniProt entries cited, without tags or fusion partners. Where a name states a change or a piece, a line headed by the entry shows the natural chain unless it says otherwise.
UniProt P48736: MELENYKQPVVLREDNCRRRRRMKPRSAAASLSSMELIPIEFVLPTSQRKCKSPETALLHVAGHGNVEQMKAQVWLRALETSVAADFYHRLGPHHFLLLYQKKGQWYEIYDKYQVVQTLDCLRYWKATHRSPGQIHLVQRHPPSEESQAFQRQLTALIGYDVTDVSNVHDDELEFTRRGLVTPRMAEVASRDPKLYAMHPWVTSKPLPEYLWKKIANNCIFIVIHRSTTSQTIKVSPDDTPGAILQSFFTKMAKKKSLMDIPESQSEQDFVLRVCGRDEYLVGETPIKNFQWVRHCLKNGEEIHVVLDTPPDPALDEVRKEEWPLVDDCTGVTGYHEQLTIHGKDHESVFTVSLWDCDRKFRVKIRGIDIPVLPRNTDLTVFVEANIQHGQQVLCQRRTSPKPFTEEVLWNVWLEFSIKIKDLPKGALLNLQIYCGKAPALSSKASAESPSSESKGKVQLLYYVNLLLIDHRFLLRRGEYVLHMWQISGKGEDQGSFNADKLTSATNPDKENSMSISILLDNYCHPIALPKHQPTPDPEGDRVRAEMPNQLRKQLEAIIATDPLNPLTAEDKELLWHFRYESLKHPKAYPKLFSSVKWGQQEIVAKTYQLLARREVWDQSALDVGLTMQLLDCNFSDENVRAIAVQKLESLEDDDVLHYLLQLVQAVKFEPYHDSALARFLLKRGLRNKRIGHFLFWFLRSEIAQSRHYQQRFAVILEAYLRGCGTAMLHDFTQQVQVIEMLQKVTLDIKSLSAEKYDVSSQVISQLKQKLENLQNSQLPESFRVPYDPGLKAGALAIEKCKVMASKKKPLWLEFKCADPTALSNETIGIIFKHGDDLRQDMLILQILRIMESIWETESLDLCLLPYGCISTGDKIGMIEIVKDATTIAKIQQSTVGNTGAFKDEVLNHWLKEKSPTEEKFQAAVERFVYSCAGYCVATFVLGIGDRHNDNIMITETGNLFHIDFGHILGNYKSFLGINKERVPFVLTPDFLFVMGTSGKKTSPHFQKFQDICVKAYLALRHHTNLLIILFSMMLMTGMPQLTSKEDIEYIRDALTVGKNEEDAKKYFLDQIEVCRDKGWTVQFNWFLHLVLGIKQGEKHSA

Legend:
[1] = target: p110γ, class IB PI3K catalytic subunit, wild type (human) (UniProt P48736); assay: SEC; p110γ and p101 co-expressed in Sf9 and co-purified by nickel affinity, streptavidin affinity and TEV cleavage; Superdex 200 10/300 GL Increase in 20 mM Tris pH 8.5, 100 mM NaCl, 50 mM ammonium sulfate, 0.5 mM TCEP; SDS-PAGE of the final complexes; both purified
p110γ R1021C (human) [2] = target: p110γ R1021C (human) (UniProt P48736); assay: as above
p110γ R1021P (human) = p110γ R1021P (human) (UniProt P48736); assay: as above
[3] = target: p110γ, class IB PI3K catalytic subunit, wild type (human) (UniProt P48736); assay: HDX-MS; free p110γ compared with the p110γ/p101 complex (WT and R1021C); 13 pmol protein, D2O buffer 20 mM HEPES pH 7.5, 100 mM NaCl; 3, 30, 300, 3000 s at 20°C; both purified
p110γ R1021C (human) [4] = target: p110γ R1021C (human) (UniProt P48736); assay: as above

Measured: binding

B1: p101 regulatory subunit of PI3Kγ (protein, UniProt O02696 1-877)
chain: MQPGATTCTEDRIQHALERCLHGLSLSRRSTSWSAGLCLNCWSLQELVSRDPGHFLILLEQILQKTREVQEKGTYDLLAPLALLFYSTVLCTPHFPPDSDLLLKAARTYHRFLTWPVPYCSICQELLTFIDAELKAPGISYQRLVRAEQGLSTRSHRSSTVTVLLLNPVEVQAEFLDVADKLSTPGPSPHSAYITLLLHAFQATFGAHCDLSGLHRRLQSKTLAELEAIFTETAEAQELASGIGDAAEARQWLRTKLQAVGEKAGFPGVLDTAKPGKLRTIPIPVARCYTYSWNQDSFDILQEILLKEQELLQPEILDDEEDEDEEDEEEDLDADGHCAERDSVLSTGSAASHASTLSLASSQASGPTLSRQLLTSFVSGLSDGVDSGYMEDIEESAYERPRRPGGHERRGHRRPGQKFNRIYKLFKSTSQMVLRRDSRSLEGSPDSGPPLRRAGSLCSPLDSPTLPPSRAQGSRSLPQPKLSPQLPGWLLAPASRHQRRRPFLSGDEDPKASTLRVVVFGSDRISGKVVRAYSNLRRLENNRPLLTRFFKLQFFYVPVKRSRGTGTPTSPAPRSQTPPLPTDAPRHPGPAELGAAPWEESTNDISHYLGMLDPWYERNVLGLMHLPPEVLCQSLKAEPRPLEGSPAQLPILADMLLYYCRFAARPVLLQVYQTELTFITGEKTTEIFIHSLELGHSAATRAIKASGPGSKRLGIDGDREAVPLTLQIIYSKGAISGRSRWSNMEKLCTSVNLSKACRQQEELDSSTEALTLNLTEVVKRQTPKSKKGFNQISTSQIKVDKVQIIGSNSCPFAVCLDQDERKILQSVIRCEVSPCYKPEKSSLCPPPQRPSYPPAPATPDLCSLLCLPIMTFSGALP
binds: all assays above
